The results in this text go back to the supplement of paper PMC12819154, “High-throughput peptide-centric local stability assay extends protein–ligand identification to membrane proteins, tissues and bacteria” (Nature Structural & Molecular Biology, 2025).

The chains behind the UniProt entries cited, without tags or fusion partners. Where a name states a change or a piece, a line headed by the entry shows the natural chain unless it says otherwise.
UniProt O95163: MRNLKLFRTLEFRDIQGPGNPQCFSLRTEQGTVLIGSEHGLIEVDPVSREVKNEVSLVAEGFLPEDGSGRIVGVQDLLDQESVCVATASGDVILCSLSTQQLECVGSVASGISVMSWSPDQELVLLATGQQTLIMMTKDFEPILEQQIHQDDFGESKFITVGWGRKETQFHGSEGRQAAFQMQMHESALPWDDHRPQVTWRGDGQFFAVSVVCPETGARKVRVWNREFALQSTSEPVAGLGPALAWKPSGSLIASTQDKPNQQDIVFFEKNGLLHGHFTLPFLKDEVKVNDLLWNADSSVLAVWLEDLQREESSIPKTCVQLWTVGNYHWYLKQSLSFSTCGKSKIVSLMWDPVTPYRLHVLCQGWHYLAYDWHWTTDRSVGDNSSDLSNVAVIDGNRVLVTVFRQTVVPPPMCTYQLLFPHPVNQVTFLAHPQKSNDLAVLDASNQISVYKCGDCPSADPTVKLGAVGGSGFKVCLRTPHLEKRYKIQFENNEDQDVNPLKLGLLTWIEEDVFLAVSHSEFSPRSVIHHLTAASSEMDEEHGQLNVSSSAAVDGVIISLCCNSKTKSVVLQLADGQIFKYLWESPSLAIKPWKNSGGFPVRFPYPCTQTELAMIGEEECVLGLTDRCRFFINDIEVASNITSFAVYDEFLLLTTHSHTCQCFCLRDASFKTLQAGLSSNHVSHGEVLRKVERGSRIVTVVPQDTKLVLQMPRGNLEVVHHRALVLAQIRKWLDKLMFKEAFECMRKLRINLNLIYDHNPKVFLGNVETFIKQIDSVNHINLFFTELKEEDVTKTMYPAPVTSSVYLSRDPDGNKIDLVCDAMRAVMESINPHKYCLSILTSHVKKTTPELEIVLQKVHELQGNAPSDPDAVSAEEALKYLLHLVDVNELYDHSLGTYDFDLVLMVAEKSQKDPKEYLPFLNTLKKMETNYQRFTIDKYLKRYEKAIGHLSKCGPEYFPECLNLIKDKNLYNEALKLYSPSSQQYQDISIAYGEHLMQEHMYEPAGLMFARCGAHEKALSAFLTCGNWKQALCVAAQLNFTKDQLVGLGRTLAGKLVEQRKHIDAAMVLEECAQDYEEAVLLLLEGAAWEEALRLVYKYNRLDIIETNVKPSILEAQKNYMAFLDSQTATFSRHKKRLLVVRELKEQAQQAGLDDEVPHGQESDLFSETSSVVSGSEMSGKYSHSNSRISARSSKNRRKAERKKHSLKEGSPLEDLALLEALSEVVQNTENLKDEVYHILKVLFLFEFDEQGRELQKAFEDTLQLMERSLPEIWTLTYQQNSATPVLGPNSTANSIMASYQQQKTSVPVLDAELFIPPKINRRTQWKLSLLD
UniProt O95684: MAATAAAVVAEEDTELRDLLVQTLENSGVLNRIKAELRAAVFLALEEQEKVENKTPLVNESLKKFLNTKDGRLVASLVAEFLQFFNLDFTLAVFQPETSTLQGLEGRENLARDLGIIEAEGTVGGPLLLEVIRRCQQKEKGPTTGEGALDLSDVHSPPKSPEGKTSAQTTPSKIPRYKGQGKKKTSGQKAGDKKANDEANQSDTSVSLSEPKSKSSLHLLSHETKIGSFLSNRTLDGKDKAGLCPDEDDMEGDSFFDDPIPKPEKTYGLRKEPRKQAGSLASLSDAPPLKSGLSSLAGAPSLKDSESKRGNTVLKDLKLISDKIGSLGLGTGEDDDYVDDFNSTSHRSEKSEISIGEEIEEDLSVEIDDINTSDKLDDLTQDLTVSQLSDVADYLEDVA
UniProt O95292, whole entry: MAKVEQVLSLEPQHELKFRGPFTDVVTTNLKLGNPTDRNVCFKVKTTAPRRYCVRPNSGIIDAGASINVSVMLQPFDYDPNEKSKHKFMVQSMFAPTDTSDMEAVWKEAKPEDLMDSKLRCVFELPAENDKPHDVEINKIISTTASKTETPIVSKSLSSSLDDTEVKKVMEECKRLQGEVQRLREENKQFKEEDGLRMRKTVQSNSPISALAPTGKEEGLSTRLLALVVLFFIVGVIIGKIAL
UniProt O95239: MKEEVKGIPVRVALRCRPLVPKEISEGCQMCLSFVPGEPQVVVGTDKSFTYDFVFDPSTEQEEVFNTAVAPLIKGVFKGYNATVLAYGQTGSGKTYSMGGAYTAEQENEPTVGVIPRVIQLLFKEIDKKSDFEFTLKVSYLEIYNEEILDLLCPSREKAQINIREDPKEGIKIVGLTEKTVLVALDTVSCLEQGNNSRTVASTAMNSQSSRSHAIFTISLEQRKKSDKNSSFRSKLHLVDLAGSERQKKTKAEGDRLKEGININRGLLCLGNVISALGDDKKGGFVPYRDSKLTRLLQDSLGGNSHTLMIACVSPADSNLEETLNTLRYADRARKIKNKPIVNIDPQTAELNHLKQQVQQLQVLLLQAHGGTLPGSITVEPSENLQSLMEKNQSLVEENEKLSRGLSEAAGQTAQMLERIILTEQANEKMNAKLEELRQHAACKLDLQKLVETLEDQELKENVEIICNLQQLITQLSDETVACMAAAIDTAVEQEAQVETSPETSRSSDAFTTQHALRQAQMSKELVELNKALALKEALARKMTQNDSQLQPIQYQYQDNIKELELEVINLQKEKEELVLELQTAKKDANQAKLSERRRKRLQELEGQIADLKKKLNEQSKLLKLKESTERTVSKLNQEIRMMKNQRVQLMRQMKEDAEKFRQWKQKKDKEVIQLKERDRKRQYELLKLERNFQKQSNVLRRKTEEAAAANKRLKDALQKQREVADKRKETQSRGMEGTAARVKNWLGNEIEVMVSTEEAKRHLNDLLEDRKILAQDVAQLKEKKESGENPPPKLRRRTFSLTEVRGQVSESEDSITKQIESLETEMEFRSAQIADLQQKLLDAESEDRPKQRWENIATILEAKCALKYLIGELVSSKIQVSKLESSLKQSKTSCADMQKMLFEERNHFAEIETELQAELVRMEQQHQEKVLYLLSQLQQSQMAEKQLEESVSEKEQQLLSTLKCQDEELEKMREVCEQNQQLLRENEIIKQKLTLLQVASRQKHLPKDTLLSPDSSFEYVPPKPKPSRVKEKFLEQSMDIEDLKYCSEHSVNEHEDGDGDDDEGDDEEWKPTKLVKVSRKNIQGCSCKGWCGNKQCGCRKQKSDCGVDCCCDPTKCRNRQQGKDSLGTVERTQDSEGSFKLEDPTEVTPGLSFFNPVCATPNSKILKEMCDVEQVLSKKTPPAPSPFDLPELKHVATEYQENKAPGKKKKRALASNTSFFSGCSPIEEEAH
UniProt O94888: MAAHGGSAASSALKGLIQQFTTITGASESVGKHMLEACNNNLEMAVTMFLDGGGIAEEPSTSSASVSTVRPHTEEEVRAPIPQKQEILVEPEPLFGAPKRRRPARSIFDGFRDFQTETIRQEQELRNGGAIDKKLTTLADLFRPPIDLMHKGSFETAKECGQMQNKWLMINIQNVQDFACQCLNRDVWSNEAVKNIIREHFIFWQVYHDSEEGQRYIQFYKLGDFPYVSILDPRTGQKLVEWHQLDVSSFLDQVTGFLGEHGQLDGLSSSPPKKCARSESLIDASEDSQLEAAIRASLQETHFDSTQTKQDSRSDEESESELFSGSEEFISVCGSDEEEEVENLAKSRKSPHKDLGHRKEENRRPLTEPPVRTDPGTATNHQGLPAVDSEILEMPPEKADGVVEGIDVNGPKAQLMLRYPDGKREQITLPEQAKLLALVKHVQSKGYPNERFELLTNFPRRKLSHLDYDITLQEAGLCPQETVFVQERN
UniProt O95822: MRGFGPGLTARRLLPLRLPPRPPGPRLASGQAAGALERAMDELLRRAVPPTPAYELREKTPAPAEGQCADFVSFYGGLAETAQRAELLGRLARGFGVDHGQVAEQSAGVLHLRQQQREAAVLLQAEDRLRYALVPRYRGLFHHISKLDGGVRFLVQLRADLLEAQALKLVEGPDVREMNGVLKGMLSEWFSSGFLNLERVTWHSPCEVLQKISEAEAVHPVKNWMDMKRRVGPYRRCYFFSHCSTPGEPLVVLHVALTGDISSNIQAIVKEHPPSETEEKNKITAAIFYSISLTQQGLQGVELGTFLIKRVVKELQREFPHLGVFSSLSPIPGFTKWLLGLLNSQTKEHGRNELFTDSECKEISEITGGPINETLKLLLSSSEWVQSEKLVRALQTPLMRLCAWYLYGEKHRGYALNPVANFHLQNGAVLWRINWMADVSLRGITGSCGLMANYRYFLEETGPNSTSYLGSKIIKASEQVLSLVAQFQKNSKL
UniProt O95786: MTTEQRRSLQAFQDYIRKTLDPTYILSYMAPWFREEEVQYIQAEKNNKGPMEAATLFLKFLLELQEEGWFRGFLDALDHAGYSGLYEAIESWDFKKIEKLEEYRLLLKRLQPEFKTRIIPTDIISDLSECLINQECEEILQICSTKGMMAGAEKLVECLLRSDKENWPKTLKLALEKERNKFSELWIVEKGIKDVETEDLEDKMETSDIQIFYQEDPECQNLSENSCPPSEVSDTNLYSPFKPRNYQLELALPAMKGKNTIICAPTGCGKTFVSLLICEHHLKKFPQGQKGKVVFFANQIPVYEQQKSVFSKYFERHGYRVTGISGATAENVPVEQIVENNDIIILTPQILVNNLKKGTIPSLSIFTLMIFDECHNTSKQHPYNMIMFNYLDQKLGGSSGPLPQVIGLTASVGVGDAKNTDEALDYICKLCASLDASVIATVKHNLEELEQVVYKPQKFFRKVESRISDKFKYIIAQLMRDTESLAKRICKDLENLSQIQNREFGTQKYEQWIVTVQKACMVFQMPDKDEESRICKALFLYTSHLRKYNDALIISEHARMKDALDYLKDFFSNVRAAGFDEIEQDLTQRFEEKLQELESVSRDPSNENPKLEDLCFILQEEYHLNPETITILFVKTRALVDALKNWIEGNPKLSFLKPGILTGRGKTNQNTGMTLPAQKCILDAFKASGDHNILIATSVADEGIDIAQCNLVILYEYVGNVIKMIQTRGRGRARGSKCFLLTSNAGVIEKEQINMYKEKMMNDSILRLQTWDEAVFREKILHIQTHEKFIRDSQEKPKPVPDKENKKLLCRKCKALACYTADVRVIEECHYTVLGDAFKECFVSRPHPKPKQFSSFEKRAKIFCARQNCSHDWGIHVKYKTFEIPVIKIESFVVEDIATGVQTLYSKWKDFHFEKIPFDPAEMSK

The list shows a part of the results. Most values lie at the level of the controls, where differences are scatter.

Compound in the assay: CN[C@@H]1C[C@H]2O[C@@](C)([C@@H]1OC)n1c3ccccc3c3c4c(c5c6ccccc6n2c5c31)C(=O)NC4 [staurosporine]
Briefly: log2 fold change of tryptic peptide abundance, ligand vs vehicle (limited proteolysis) (log2 ratio); higher = more trypsin-susceptible (destabilized). To be noted: ligand concentration: 20 uM; sample: K562 cleared lysate; digestion: 4 min, 22 C (HT-PELSA RT4min, Orbitrap Astral).
With “UniProt O95163 (peptide sequence: EYLPFLNTLKK, peptide start residue: 916)”, the log2 fold change turned out to be 0.366.

Turning to “FGFR1OP (peptide sequence: TSAQTTPSKIPR, peptide start residue: 165) (UniProt O95684)”, the log2 fold change turned out to be 0.245.

As for “VAPB (peptide sequence: IISTTASKTETPIVSK, peptide start residue: 140) (UniProt O95292)”, the log2 fold change was -0.39.

With “KIF4A (peptide sequence: GGFVPYRDSK, peptide start residue: 283) (UniProt O95239)”, the log2 fold change came out at 0.384.

As to “UBXN7 (peptide sequence: EENRRPLTEPPVR, peptide start residue: 360) (UniProt O94888)”, the log2 fold change is -0.865.

As for “MLYCD (peptide sequence: ADLLEAQALK, peptide start residue: 159) (UniProt O95822)”, the log2 fold change is -0.0106.

Regarding “DDX58 (peptide sequence: YIIAQLMR, peptide start residue: 473) (UniProt O95786)”, the log2 fold change was -0.0121.
